# In the supplement of paper PMC4604168 (melanoma cell lines):
# This is one part of the list. Repeats are few or missing, and single values can be far off.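 Imaging used 1,536-well plates; nuclei positive for cleaved PARP by antibody were divided by total DNA-stained nuclei to yield the apoptosis fraction. Doses for screening kept most cells viable, and cell lines differ markedly in resting and induced cleaved-PARP levels.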
# Tests used:
# Experiment in all cases: cleaved PARP positive nuclei fraction relative to DMSO control; melanoma cells; higher = more apoptosis
# Conditions in all cases: library dose: low library concentration; 72 h
# [1] = tested on: MZ2-MEL
# [2] = tested on: MeWo
# [3] = tested on: RPMI7951
# [4] = tested on: RVH-421
# [5] = tested on: SkMel28
# [6] = tested on: SkMel2
# [7] = tested on: SkMel30
# [8] = tested on: SkMel5
# [9] = tested on: UACC257
# [10] = tested on: UACC62
# [11] = tested on: WM115
# [12] = tested on: WM1716
# [13] = tested on: WM1745
# [14] = tested on: WM3526
# [15] = tested on: WM3619
# [16] = tested on: WM451Lu
SMILES,cleaved PARP positive nuclei fraction [1] [%],cleaved PARP positive nuclei fraction [2] [%],cleaved PARP positive nuclei fraction [3] [%],cleaved PARP positive nuclei fraction [4] [%],cleaved PARP positive nuclei fraction [5] [%],cleaved PARP positive nuclei fraction [6] [%],cleaved PARP positive nuclei fraction [7] [%],cleaved PARP positive nuclei fraction [8] [%],cleaved PARP positive nuclei fraction [9] [%],cleaved PARP positive nuclei fraction [10] [%],cleaved PARP positive nuclei fraction [11] [%],cleaved PARP positive nuclei fraction [12] [%],cleaved PARP positive nuclei fraction [13] [%],cleaved PARP positive nuclei fraction [14] [%],cleaved PARP positive nuclei fraction [15] [%],cleaved PARP positive nuclei fraction [16] [%]
"N#CC[C@H](C1CCCC1)n1cc(-c2ncnc3[nH]ccc23)cn1 [ruxolitinib] + CC1(C)NC(=O)N(c2ccc([N+](=O)[O-])c(C(F)(F)F)c2)C1=O [nilutamide] (first compound 1 µM, partner dose 1 µM)",85.8,92.8,108,32.1,34.2,75.6,59.5,57.3,186,77.5,44.1,37.1,102,154,100,86.4
"CC[C@]1(O)C[C@H]2CN(CCc3c([nH]c4ccccc34)[C@@](C(=O)OC)(c3cc4c(cc3OC)N(C=O)[C@H]3[C@@](O)(C(=O)OC)[C@H](OC(C)=O)[C@]5(CC)C=CCN6CC[C@]43[C@@H]65)C2)C1 [vincristine] + COc1cc(Nc2ncc(F)c(Nc3ccc4c(n3)NC(=O)C(C)(C)O4)n2)cc(OC)c1OC [Tamatinib] (first compound 0.0001 µM, partner dose 0.4 µM)",141,277,164,99.6,42.3,172,106,192,673,389,1760,290,175,99.7,145,1010
"COc1cc([C@@H]2c3cc4c(cc3[C@@H](O[C@@H]3O[C@@H]5CO[C@@H](C)O[C@H]5[C@H](O)[C@H]3O)[C@H]3COC(=O)[C@H]23)OCO4)cc(OC)c1O [etoposide] + CCc1ccc(CCOc2ccc(CC3SC(=O)NC3=O)cc2)nc1 [pioglitazone] (first compound 0.02 µM, partner dose 2 µM)",57.4,99.2,207,123,139,108,106,100,135,163,119,62.1,95,85.1,110,49.7
"CC[C@]1(O)C[C@H]2CN(CCc3c([nH]c4ccccc34)[C@@](C(=O)OC)(c3cc4c(cc3OC)N(C=O)[C@H]3[C@@](O)(C(=O)OC)[C@H](OC(C)=O)[C@]5(CC)C=CCN6CC[C@]43[C@@H]65)C2)C1 [vincristine] + O=C(O)c1ccc(-c2c[nH]c3ncc(-c4ccccc4)cc23)cc1C1CCCC1 [GSK650394] (first compound 0.0001 µM, partner dose 0.16 µM)",186,297,166,49.4,181,206,301,110,239,259,2400,439,106,118,158,197
"CCCCCCCCCCCCCCCCCCOP(=O)([O-])OC1CC[N+](C)(C)CC1 [Perifosine] + CC(C)CCN1c2nc(Nc3cc(F)c(O)c(F)c3)ncc2N(C)C(=O)C1C [BID1870] (first compound 0.4 µM, partner dose 0.2 µM)",188,565,147,111,16.1,88.8,91.7,74.1,59.8,206,138,25.1,83.8,93.1,88.9,42.7
"O=c1[nH]nc(Sc2ncc([N+](=O)[O-])s2)n1-c1ccc2c(c1)OCCO2 + Oc1cc(-c2nc(-c3ccccc3)[nH]c2-c2ccncc2)ccc1Cl [L779450] (first compound 0.2 µM, partner dose 0.2 µM)",143,43.6,121,116,91.2,170,87.2,68.3,57.5,146,92.5,61.2,102,258,84.7,67.1
"COc1cc([C@@H]2c3cc4c(cc3[C@@H](O[C@@H]3O[C@@H]5CO[C@@H](C)O[C@H]5[C@H](O)[C@H]3O)[C@H]3COC(=O)[C@H]23)OCO4)cc(OC)c1O [etoposide] + O=C1NC(=O)/C(=C/c2ccc(-c3ccc(F)cc3O)o2)S1 [AS252424] (first compound 0.02 µM, partner dose 1 µM)",75.2,141,117,113,87.7,71.5,82.9,75.3,179,75.9,182,44.5,96.4,80.7,87,53.9
"O=c1[nH]nc(Sc2ncc([N+](=O)[O-])s2)n1-c1ccc2c(c1)OCCO2 + O=C(CCCCCCC(=O)Nc1ccccc1)NO [vorinostat] (first compound 0.2 µM, partner dose 0.08 µM)",142,67.1,140,52,55,53.1,63.1,201,45.9,130,62,155,83.6,272,89.5,108
"CCCCCCCCCCCCCCCCCCOP(=O)([O-])OC1CC[N+](C)(C)CC1 [Perifosine] + O=C1NC(=O)/C(=C/c2ccc(-c3ccc(F)cc3O)o2)S1 [AS252424] (first compound 0.4 µM, partner dose 1 µM)",96.5,48,126,60.4,96.8,147,46.3,66.8,169,32.7,100,110,104,88.5,106,88.2
"N#CC[C@H](C1CCCC1)n1cc(-c2ncnc3[nH]ccc23)cn1 [ruxolitinib] + Cn1cncc1[C@@](N)(c1ccc(Cl)cc1)c1ccc2c(c1)c(-c1cccc(Cl)c1)cc(=O)n2C [tipifarnib] (first compound 1 µM, partner dose 0.01 µM)",178,121,107,122,158,129,65.1,196,68.9,123,67.3,102,100,60.3,96.4,298
"N#CC[C@H](C1CCCC1)n1cc(-c2ncnc3[nH]ccc23)cn1 [ruxolitinib] + COC(=O)c1sccc1S(=O)(=O)Nc1ccc(Nc2ccccc2)cc1OC [GSK0660] (first compound 1 µM, partner dose 1 µM)",77.7,137,147,129,121,101,79.7,70.4,26,149,56.4,94.2,87.6,130,92.2,83.3
"Cc1cc(Nc2cc(N3CCN(C)CC3)nc(Sc3ccc(NC(=O)C4CC4)cc3)n2)n[nH]1 [Tozasertib] + O=C(Nc1ccccc1)c1cc([N+](=O)[O-])ccc1Cl [GW9662] (first compound 0.006 µM, partner dose 2 µM)",72.6,371,264,64.9,134,63.5,484,108,64.1,109,128,53.3,97.3,294,84,112
"CC[C@]1(O)C[C@H]2CN(CCc3c([nH]c4ccccc34)[C@@](C(=O)OC)(c3cc4c(cc3OC)N(C=O)[C@H]3[C@@](O)(C(=O)OC)[C@H](OC(C)=O)[C@]5(CC)C=CCN6CC[C@]43[C@@H]65)C2)C1 [vincristine] + CCc1ccc(CCOc2ccc(CC3SC(=O)NC3=O)cc2)nc1 [pioglitazone] (first compound 0.0001 µM, partner dose 2 µM)",187,95.1,86.5,154,513,261,40.4,101,1030,380,1820,290,114,108,159,74.5
"Cc1cc(Nc2cc(N3CCN(C)CC3)nc(Sc3ccc(NC(=O)C4CC4)cc3)n2)n[nH]1 [Tozasertib] + CCCCCCCCCCCC1=C(O)C(=O)C=C(O)C1=O [Embelin] (first compound 0.006 µM, partner dose 1.2 µM)",73.8,94,46.2,85,84.8,36.1,67.7,77.1,68.2,88.1,104,104,87.5,64.2,85,34.1
"Cc1cc(Nc2cc(N3CCN(C)CC3)nc(Sc3ccc(NC(=O)C4CC4)cc3)n2)n[nH]1 [Tozasertib] + O=C(CCCCCCC(=O)Nc1ccccc1)NO [vorinostat] (first compound 0.006 µM, partner dose 0.08 µM)",52,129,57.3,139,38,85.4,65.6,194,38.7,125,151,39.2,99.1,171,109,76.6
"O=C(/C=C/c1cccnc1)NCCCCC1CCN(C(=O)c2ccccc2)CC1 + CN(NC(=O)CC(=O)NN(C)C(=S)c1ccccc1)C(=S)c1ccccc1 [STA4783] (first compound 0.01 µM, partner dose 0.006 µM)",407,50.7,103,239,44.1,296,24.2,138,60.2,163,300,196,321,56.2,228,82.1
"COc1cc([C@@H]2c3cc4c(cc3[C@@H](O[C@@H]3O[C@@H]5CO[C@@H](C)O[C@H]5[C@H](O)[C@H]3O)[C@H]3COC(=O)[C@H]23)OCO4)cc(OC)c1O [etoposide] + CC1(C)NC(=O)N(c2ccc([N+](=O)[O-])c(C(F)(F)F)c2)C1=O [nilutamide] (first compound 0.02 µM, partner dose 1 µM)",25.8,86.9,184,170,31.4,129,117,241,36,48.6,110,99.5,95,55.3,106,
"Cc1cn(-c2cc(NC(=O)c3ccc(C)c(Nc4nccc(-c5cccnc5)n4)c3)cc(C(F)(F)F)c2)cn1 [nilotinib] + COc1ccc(COc2ccc(Cc3cnc(N)nc3N)cc2OC)cc1 [GW2580] (first compound 0.2 µM, partner dose 1 µM)",127,82.6,34.7,69.8,396,88.7,90.5,75.4,361,152,94.6,116,97.1,34.6,84.4,119

# Full records as entered above. Order of values: cleaved PARP positive nuclei fraction [1] [%] | cleaved PARP positive nuclei fraction [2] [%] | cleaved PARP positive nuclei fraction [3] [%] | cleaved PARP positive nuclei fraction [4] [%] | cleaved PARP positive nuclei fraction [5] [%] | cleaved PARP positive nuclei fraction [6] [%] | cleaved PARP positive nuclei fraction [7] [%] | cleaved PARP positive nuclei fraction [8] [%] | cleaved PARP positive nuclei fraction [9] [%] | cleaved PARP positive nuclei fraction [10] [%] | cleaved PARP positive nuclei fraction [11] [%] | cleaved PARP positive nuclei fraction [12] [%] | cleaved PARP positive nuclei fraction [13] [%] | cleaved PARP positive nuclei fraction [14] [%] | cleaved PARP positive nuclei fraction [15] [%] | cleaved PARP positive nuclei fraction [16] [%]
# Cc1cc(Nc2cc(N3CCN(C)CC3)nc(Sc3ccc(NC(=O)C4CC4)cc3)n2)n[nH]1 [Tozasertib] + O=C(CCCCCCC(=O)Nc1ccccc1)NO [vorinostat] (first compound 0.006 µM, partner dose 0.08 µM) reads 52 | 129 | 57.3 | 139 | 38 | 85.4 | 65.6 | 194 | 38.7 | 125 | 151 | 39.2 | 99.1 | 171 | 109 | 76.6
# O=c1[nH]nc(Sc2ncc([N+](=O)[O-])s2)n1-c1ccc2c(c1)OCCO2 + O=C(CCCCCCC(=O)Nc1ccccc1)NO [vorinostat] (first compound 0.2 µM, partner dose 0.08 µM) reads 142 | 67.1 | 140 | 52 | 55 | 53.1 | 63.1 | 201 | 45.9 | 130 | 62 | 155 | 83.6 | 272 | 89.5 | 108
